Results taken from patent publication US12201619B2, “Compounds and methods for use in the treatment of microglia-mediated disorders” (NSC Therapeutics GmbH, priority 2018, dated 2025).
Some of these results come from one statement about several compounds together.

Tested on: human blood-derived macrophages
Experiment: Cell viability (PrestoBlue) of blood-derived human macrophages
Type: cell-based
Conditions: after 24 hours
Protocol: Human blood-derived macrophages were isolated from buffy coat via standard protocols (Monocyte isolation Kit, 130091153, Miltenyi Biotec GmbH, Germany) and differentiated for 9 days in M-CSF medium (Ser. No. 12/065,074, Thermo Fisher, Switzerland,) supplemented with 125 ng/ml human GM-CSF (130093864, Miltenyi Biotec GmbH, Germany) to induce M1 macrophage differentiation. Upon differentiation, cells were harvested and re-seeded at 1 Mio cells per 24-well. […] Cell viability was detected by absorbance measurements utilizing the PrestoBlue colorimetric assay (PrestoBlue Cell Viability Reagent, A13261, Thermo Fisher, Switzerland). Cell viability was assessed directly after compound application at 0 h and after 1 h, 3 h and 24 h.

Structure (SMILES)	increased cell viability compared to medium control
C[C@@H]1O[C@@]2(CS1)CN1CCC2CC1.Cl (racemic) [AF102B, cis-2-Methylspiro[1,3-oxathiolane-5,3′-quinuclidine] hydrochloride, reference compound]	up to 30%
CC[C@@H]1SC2(CCN(C)CC2)NC1=O [NSC001, (S)-2-ethyl-8-methyl-1-thia-4,8-diaza-spiro[4.5]decan-3-one]	up to 30%
